Results are given in words; binding and its absence hold for the method and conditions named. Binding seen in cells or lysates may run through a third protein. Some entries that bind do so weakly or less than the wild type.

Amino acid sequences for entries named in this document (tags omitted). A change or cut given only in a name is not applied to a line headed by its entry. Residues count along the entry.
UniProt P35968, residues 20-1356: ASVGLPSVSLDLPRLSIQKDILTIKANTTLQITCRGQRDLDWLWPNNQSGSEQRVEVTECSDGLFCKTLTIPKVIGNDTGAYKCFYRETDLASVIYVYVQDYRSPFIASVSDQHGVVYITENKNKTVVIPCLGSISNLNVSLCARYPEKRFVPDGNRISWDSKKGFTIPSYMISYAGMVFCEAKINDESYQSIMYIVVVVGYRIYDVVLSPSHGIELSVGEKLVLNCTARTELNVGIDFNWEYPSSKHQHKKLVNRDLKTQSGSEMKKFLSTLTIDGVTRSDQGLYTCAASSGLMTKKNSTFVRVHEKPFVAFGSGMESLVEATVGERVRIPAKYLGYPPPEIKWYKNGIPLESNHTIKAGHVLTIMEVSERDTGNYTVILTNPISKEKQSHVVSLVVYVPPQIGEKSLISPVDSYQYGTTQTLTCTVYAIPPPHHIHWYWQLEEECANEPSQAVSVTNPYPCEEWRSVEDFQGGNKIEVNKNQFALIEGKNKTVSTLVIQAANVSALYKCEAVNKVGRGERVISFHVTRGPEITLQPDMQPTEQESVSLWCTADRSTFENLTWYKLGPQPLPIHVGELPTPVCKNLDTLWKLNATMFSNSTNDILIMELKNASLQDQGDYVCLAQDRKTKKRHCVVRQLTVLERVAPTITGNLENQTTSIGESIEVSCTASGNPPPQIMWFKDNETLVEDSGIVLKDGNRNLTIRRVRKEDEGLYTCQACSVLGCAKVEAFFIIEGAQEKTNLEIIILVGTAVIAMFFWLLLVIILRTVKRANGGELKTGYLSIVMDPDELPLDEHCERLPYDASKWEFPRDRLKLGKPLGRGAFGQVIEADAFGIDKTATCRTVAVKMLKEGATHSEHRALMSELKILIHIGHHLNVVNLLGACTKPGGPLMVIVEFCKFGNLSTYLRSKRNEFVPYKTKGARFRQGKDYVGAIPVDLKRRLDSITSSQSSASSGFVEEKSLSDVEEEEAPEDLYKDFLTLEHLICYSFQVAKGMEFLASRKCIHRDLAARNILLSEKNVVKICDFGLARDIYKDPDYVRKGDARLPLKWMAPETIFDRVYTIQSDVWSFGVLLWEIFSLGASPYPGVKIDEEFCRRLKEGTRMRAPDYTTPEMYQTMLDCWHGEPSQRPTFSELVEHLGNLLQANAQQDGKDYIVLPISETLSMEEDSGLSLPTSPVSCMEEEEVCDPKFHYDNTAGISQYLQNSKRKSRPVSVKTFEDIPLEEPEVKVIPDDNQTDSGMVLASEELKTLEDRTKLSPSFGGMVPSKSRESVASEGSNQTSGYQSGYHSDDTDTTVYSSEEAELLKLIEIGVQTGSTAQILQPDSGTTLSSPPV
UniProt P13612: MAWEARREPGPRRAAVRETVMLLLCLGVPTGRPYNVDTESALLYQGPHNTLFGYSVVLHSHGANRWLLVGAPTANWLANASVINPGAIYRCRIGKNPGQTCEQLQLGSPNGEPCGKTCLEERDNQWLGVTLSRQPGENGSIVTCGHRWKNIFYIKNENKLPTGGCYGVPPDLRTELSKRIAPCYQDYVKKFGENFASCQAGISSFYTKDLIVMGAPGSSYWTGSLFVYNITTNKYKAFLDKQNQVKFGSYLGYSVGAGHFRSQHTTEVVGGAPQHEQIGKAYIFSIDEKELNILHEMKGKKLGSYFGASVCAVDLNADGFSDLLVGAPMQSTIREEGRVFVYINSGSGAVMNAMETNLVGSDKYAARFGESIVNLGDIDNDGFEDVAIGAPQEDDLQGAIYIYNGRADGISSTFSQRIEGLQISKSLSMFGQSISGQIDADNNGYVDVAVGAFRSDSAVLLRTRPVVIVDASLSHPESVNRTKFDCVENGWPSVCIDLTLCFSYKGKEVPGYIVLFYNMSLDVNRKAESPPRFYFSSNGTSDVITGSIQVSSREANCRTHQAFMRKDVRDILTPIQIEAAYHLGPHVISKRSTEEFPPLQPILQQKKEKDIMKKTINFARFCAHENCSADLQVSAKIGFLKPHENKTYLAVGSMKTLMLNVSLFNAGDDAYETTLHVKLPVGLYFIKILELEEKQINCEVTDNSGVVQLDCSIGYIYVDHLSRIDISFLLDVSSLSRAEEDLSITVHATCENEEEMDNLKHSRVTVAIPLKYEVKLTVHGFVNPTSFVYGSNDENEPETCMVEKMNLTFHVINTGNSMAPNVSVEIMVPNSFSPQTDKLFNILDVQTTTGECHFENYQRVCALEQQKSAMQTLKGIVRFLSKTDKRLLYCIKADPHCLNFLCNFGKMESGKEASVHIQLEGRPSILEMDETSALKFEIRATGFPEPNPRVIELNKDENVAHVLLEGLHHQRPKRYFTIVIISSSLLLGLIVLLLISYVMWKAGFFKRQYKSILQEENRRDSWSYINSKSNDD
UniProt P05556: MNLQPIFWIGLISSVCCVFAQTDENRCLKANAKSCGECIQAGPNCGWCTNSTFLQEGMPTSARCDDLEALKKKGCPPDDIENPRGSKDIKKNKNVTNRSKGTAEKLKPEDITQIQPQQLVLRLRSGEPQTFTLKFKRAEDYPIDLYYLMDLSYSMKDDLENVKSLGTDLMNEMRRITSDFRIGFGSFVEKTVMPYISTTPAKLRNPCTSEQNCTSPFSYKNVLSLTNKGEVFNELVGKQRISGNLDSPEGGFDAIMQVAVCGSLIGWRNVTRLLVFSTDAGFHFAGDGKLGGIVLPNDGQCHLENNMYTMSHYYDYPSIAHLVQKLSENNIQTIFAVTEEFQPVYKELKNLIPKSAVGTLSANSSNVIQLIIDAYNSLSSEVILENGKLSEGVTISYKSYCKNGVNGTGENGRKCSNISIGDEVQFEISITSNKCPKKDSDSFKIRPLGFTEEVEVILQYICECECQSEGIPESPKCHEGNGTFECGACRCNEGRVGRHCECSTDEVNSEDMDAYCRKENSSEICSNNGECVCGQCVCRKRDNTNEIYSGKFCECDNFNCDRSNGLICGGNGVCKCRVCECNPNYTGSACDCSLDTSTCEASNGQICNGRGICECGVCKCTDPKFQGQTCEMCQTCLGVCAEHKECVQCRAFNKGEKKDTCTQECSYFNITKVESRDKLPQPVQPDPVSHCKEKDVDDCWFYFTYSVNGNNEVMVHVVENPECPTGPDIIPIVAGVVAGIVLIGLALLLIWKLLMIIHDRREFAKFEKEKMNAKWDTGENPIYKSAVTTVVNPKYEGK

Here are results for two molecules from patent US20160256523A1.

The target of experiment [1] is vascular endothelial growth factor receptor-2 (VEGFR2), human (human) (UniProt P35968). Nature of the experiment: competition of GST-S1ED pull-down from CAG lysate, immunoblot.
Experiment [2] has as its target VLA-4 (very late antigen-4, α4β1 integrin), human (human) (UniProt P13612+P05556). The experiment is described as above.

B1: S1ED^214-240 peptide (peptide)
peptide: ETSGENTAVVAVEPDRRNQSPVDQGAT
For the molecule B1, the binding entry in experiment [1] is “binds”.

B2: S1ED^210-236 peptide (peptide)
peptide: DFTFETSGENTAVVAVEPDRRNQSPVD
As for B2, the binding result in experiment [2] and in experiment [1] was “binds” throughout.
